Source: PubChem BioAssay AID1347075 (National Center for Advancing Translational Sciences (NCATS), 2019)
“And” between values parts separate entries of the source, which are not always exact repeats. Equal values may be shown once. The campaign covered roughly 400,000 compounds. About 5,500 (1.4%) were called active. The shares of active, inactive and inconclusive entries below differ from those in the screen. Calls follow the shape of the dose curve; as a rule, active = well fitted cell-killing curve with a large enough effect; inconclusive = small, poorly fitted or top-dose-only effect, or effect the other way; inactive = flat fitted curve, though single readings scatter. Potencies beside an inconclusive call are fits to weak or partial responses and may not hold up.

Assay: qHTS assay for MDR1-selective chemotherapeutics: Primary screen using the parental adenocarcinoma cell KB-3-1; also: nearly all actives have a fitted effect of over 60% in size
Settings: KB-3-1 viability, CellTiter-Glo ATP luminescence, 72 h; series mostly up to 46.1 µM
Procedure, shortened: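 72 h, 37 °C compound treatment of KB-3-1 parental cells; CellTiter-Glo added, 10 min, luminescence read. Data corrected against DMSO-only plates and normalized before curve fitting.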
Potency is read from the fitted curve at half-maximal effect.

Row | Compound | Potency
1 | CC1(C)CCc2cc(-c3ccn(S(=O)(=O)c4ccccc4Cl)n3)ccc2O1 | inactive
2 | Cc1ccc(-c2cc(C(=O)N/N=C/C=C/c3ccco3)c3ccccc3n2)cc1C | inconclusive: 10.3 µM [cytotoxic, partial curve]
3 | CCOc1ccc(CN(C)C(=O)CCl)cc1 | inconclusive: 29.1 µM [cytotoxic, single point]
4 | COc1ccc(NC(=O)c2ccc([N+](=O)[O-])o2)cc1 | active: 8.2 µM
5 | C#Cc1ccc(CN2CCC(C(=O)Nc3ccc(Oc4ccccc4)nc3)CC2)cc1 | inconclusive: 18.4 µM [cytotoxic, single point]
6 | COc1ccc(OCCN2CCN(C(=O)c3ccc(OC)c(OC)c3)CC2)cc1 | inactive
7 | CCOC(=O)c1[nH]c(C)c(C(=O)NCc2ccc(Cl)cc2)c1C | inactive
8 | CC(C)Oc1cccc(C(=O)C2CCCN(C(=O)c3cc(C4CC4)[nH]n3)C2)c1 (centres undefined) | inactive
9 | Cc1ccc2c(c1)ncc[n+]2CC(=O)c1ccc(F)cc1 | inactive
10 | Oc1ccccc1-c1nc(NCc2cccnc2)c2ccccc2n1 | inconclusive: 29.1 µM [cytotoxic, single point]
11 | O=C(NCCCN1CCCCCC1)c1ccc2c(c1)NC(=O)C(N1CCOCC1)S2 (centres undefined) | inactive
12 | O=C(Nc1cccc(-c2cccc(Cl)c2)c1)C1CCN(CC2CCOC2)CC1 (centres undefined) | inconclusive: 18.4 µM [cytotoxic, single point]
13 | Cc1c(C(=O)C(=O)N2CCCc3ccccc32)c2ccccc2n1C | inconclusive: 20.6 µM [cytotoxic, single point]
14 | O=C(NCC(c1ccc(F)cc1)N1CCOCC1)c1ccc(Br)o1 (centres undefined) | inactive
15 | COc1ccc(NCc2nnc(SCC(=O)Nc3nc(-c4ccccc4)cs3)n2-c2ccccc2)cc1 | active: 13 µM
16 | C=C(C)COc1ccc2c(CC)cc(=O)oc2c1C | inconclusive: 16.4 µM [cytotoxic, single point]
17 | Nc1ccn([C@@H]2O[C@H](C(=O)N[C@H](CO)c3ccccc3)[C@@H](O)[C@H]2O)c(=O)n1 | inactive
18 | CCc1cccc(C)c1NC(=O)CSc1nnc(CCCOc2ccc(Cl)cc2Cl)n1C | active: 18.4 µM
19 | CN(C)S(=O)(=O)c1cc(NC(=O)CSc2ncc(C(F)(F)F)cc2Cl)ccc1Cl | inconclusive: 11.6 µM [cytotoxic, partial curve, poor fit]
20 | O=C(NC(=S)Nc1ccccc1O)c1cccnc1 | inconclusive: 29.1 µM [cytotoxic, single point]
21 | COc1cc(C(=O)NCCc2ccccc2)ccc1OCC(=O)N1CCOCC1 | inconclusive: 16.4 µM [rising, partial curve]
22 | COC(=O)c1ccccc1NC(=O)C1CCN(C(=O)N2CC(C)Oc3ccccc32)CC1 (centres undefined) | inactive

Retrieved by compound from the list above (2):
Row | Compound | Potency
3 | CCOc1ccc(CN(C)C(=O)CCl)cc1 | inconclusive: 29.1 µM [cytotoxic, single point]
9 | Cc1ccc2c(c1)ncc[n+]2CC(=O)c1ccc(F)cc1 | inactive

Later entries:

Row | Compound | Potency
23 | O=C(C[C@@H]1C[C@H]2c3cc(NC(=O)C4CCC4)ccc3O[C@H]2[C@@H](CO)O1)NCc1ccc(-c2ccccc2)cc1 | inconclusive: 25.9 µM [cytotoxic, partial curve, poor fit]
24 | N#Cc1ccccc1S(=O)(=O)N1CCN(CC(=O)Nc2ccccc2C(=O)NC2CC2)CC1 | inconclusive: 29.1 µM [rising, single point]
25 | O=C(Nc1ncc([N+](=O)[O-])s1)c1cccs1 | inconclusive: 23.1 µM [cytotoxic, partial curve] and inconclusive: 20.6 µM [cytotoxic, single point]
26 | COc1cccc(NC(=O)CC2Nc3cc(C)c(C)cc3NC2=O)c1 (centres undefined) | inactive
27 | OC[C@@H]1O[C@H](n2cnc3c(SCc4ccccc4)ncnc32)[C@H](O)[C@H]1O | inconclusive: 18.4 µM [cytotoxic, single point]
28 | CN(C)CCCN1c2ccc3ccccc3c2Sc2cccc(Cl)c21 | inconclusive: 23.1 µM [cytotoxic, single point]
29 | O=C(CCN1CCOCC1)NNC(=O)Nc1cccc(C(F)(F)F)c1 | inactive
30 | COc1ccccc1CNC(=O)c1cc(-c2cc(Cl)ccc2C)n[nH]1 | inconclusive: 25.9 µM [cytotoxic, single point]
31 | CC(C)(C)c1ccc(C(=O)NCC(c2ccc(Cl)cc2)N2CCOCC2)cc1 (centres undefined) | inconclusive: 16.4 µM [cytotoxic, partial curve, poor fit]
32 | Cc1ccc(CN(Cc2ccco2)C(=O)COc2ccc(C)c(C)c2)cc1 | inconclusive: 16.4 µM [cytotoxic, single point]
33 | Cc1ccc2nc3c(c(N)c2c1)CCN3C | inactive
34 | CN(NC(=O)C(=O)NCc1ccco1)C(=O)Nc1ccc(Cl)cc1 | inactive
35 | CC(C)CN(CC(C)C)c1ccc(/C=N/n2cnnc2)cc1[N+](=O)[O-] | inconclusive: 23.1 µM [cytotoxic, single point]
36 | CCCCC(C(=O)NC1CCCC1)N(Cc1ccco1)C(=O)Cn1nnc(-c2ccc(F)cc2)n1 (centres undefined) | inconclusive: 29.1 µM [cytotoxic, single point]
37 | COc1ccc([C@H]2CC(=O)C=C(c3cccc(NC(C)=O)c3)C2)cc1 | inconclusive: 29.1 µM [cytotoxic, single point]
38 | Cc1ccc(CNC(=O)c2ccc3nc(SCc4ccc(F)cc4)[nH]c3c2)cc1 | inconclusive: 16.4 µM [cytotoxic, partial curve, poor fit]
39 | CCCOc1cccc(C(=O)Nc2cc(-c3ccccc3)no2)c1 | inactive
40 | CC1CCN(c2ccc(S(=O)(=O)NC3=NCCCCC3)cc2[N+](=O)[O-])CC1 | inconclusive: 10.3 µM [cytotoxic, partial curve, poor fit]
41 | COc1ccc(OC)c(NC(=O)Nc2cnccn2)c1 | inactive
42 | Cc1cc(-c2ccccc2)c2c(=O)n(-c3ccccc3)[nH]c2n1 | inconclusive: 0.0146 µM [rising, full curve]
43 | CSc1cccc(NS(=O)(=O)c2ccc3c(c2)oc(=O)n3C)c1 | inconclusive: 20.6 µM [cytotoxic, single point]
44 | Cc1ccc2c(c1)CCCN2C(=O)c1cc(C)c(C)s1 | inconclusive: 29.1 µM [cytotoxic, single point]
